Measurements as given in publication PMC9464229.
Results are given in words; binding and its absence hold for the method and conditions named. Binding seen in cells or lysates may run through a third protein. Some entries that bind do so weakly or less than the wild type. For some of these results: Where a sequence is shown, tags or fusion partners need not be part of it. Values belong to the binder of their own block, whether it stands above or below them.

By UniProt entry, the sequences of proteins in these tests, tags left out.
UniProt P46937: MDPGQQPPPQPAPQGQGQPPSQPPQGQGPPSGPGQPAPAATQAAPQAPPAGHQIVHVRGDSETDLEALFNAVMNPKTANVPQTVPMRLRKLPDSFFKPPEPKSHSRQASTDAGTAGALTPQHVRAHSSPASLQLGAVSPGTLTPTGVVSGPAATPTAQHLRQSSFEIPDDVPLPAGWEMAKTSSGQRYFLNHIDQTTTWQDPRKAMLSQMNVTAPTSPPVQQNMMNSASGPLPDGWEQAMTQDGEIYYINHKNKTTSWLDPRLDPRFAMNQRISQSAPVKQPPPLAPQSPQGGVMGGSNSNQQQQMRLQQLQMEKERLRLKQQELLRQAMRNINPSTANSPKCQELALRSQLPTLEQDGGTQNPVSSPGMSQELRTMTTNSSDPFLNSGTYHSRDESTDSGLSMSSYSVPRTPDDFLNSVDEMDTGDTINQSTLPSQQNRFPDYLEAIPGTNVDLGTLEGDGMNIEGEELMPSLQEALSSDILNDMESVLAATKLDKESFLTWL

Columns and labels:
[1] = biological target: T1, P130cas (endogenous) (human (endogenous in A549)), P56945; assay: co-IP; endogenous P130cas, YAP or FAK immunoprecipitated from A549 cells and immunoblotted (Fig. 5A-C); settings: remark: other sources report otherwise
T1 chain: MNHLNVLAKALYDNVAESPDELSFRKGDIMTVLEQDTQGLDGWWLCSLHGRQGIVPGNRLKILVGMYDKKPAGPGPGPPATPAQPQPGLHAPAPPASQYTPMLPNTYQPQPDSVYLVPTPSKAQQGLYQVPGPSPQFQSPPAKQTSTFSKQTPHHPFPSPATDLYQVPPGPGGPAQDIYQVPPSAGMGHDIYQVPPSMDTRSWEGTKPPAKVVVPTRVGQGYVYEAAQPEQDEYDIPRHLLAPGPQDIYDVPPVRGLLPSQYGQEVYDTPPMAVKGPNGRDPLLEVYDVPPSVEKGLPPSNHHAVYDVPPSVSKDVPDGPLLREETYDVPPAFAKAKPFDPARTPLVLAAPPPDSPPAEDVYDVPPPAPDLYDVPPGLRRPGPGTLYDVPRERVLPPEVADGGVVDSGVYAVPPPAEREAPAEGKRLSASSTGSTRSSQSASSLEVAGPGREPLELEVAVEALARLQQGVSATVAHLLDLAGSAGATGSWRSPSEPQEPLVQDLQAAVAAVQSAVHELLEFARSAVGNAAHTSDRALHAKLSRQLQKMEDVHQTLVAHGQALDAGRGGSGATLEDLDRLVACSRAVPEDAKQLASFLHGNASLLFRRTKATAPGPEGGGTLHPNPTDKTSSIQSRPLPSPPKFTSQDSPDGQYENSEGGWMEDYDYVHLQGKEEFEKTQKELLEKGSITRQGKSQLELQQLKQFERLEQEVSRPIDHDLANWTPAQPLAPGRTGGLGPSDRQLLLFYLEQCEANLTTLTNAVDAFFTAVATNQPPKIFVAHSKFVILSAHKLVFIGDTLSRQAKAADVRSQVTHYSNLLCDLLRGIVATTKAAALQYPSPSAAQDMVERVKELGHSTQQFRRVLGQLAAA

[2] = biological target: T2, Flag-P130cas (full-length), P56945; assay: co-IP; tagged bait immunoprecipitated by Flag or Myc antibody from A549 cells infected with lentivirus or transfected with wild type or mutant, immunoblotted for the partners (Fig. 5D-F, Supplementary Fig. 6A); settings: remark: other sources report otherwise
T2 chain: T1 chain

Flag-YAP (wild type) = Flag-YAP (wild type) (UniProt P46937); assay: as above
Myc-FAK, Q05397 = assay: as above; settings: remark: other sources report otherwise

- binding [1]: binds
- binding [2]: binds
B1: focal adhesion kinase (FAK), endogenous, Q05397 1-1052 (protein)
chain: MAAAYLDPNLNHTPNSSTKTHLGTGMERSPGAMERVLKVFHYFESNSEPTTWASIIRHGDATDVRGIIQKIVDSHKVKHVACYGFRLSHLRSEEVHWLHVDMGVSSVREKYELAHPPEEWKYELRIRYLPKGFLNQFTEDKPTLNFFYQQVKSDYMLEIADQVDQEIALKLGCLEIRRSYWEMRGNALEKKSNYEVLEKDVGLKRFFPKSLLDSVKAKTLRKLIQQTFRQFANLNREESILKFFEILSPVYRFDKECFKCALGSSWIISVELAIGPEEGISYLTDKGCNPTHLADFTQVQTIQYSNSEDKDRKGMLQLKIAGAPEPLTVTAPSLTIAENMADLIDGYCRLVNGTSQSFIIRPQKEGERALPSIPKLANSEKQGMRTHAVSVSETDDYAEIIDEEDTYTMPSTRDYEIQRERIELGRCIGEGQFGDVHQGIYMSPENPALAVAIKTCKNCTSDSVREKFLQEALTMRQFDHPHIVKLIGVITENPVWIIMELCTLGELRSFLQVRKYSLDLASLILYAYQLSTALAYLESKRFVHRDIAARNVLVSSNDCVKLGDFGLSRYMEDSTYYKASKGKLPIKWMAPESINFRRFTSASDVWMFGVCMWEILMHGVKPFQGVKNNDVIGRIENGERLPMPPNCPPTLYSLMTKCWAYDPSRRPRFTELKAQLSTILEEEKAQQEERMRMESRRQATVSWDSGGSDEAPPKPSRPGYPSPRSSEGFYPSPQHMVQTNHYQVSGYPGSHGITAMAGSIYPGQASLLDQTDSWNHRPQEIAMWQPNVEDSTVLDLRGIGQVLPTHLMEERLIRQQQEMEEDQRWLEKEERFLKPDVRLSRGSIDREDGSLQGPIGNQHIYQPVGKPDPAAPPKKPPRPGAPGHLGSLASLSSPADSYNEGVKLQPQEISPPPTANLDRSNDKVYENVTGLVKAVIEMSSKIQPAPPEEYVPMVKEVGLALRTLLATVDETIPLLPASTHREIEMAQKLLNSDLGELINKMKLAQQYVMTSLQQEYKKQMLTAAHALAVDAKNLLDVIDQARLKMLGQTRPH

- binding (Flag-YAP (wild type)): binds
B2: P130cas (endogenous) (protein, UniProt P56945 1-870)
chain: T1 chain

- binding (Myc-FAK, Q05397): binds
B3: P130cas (endogenous), P56945 1-870 (protein)
chain: T1 chain
